From US10806739B2, “Use of n-desmethylclobazam in the treatment of chronic pain disorders and related methods” (LES HOPITAUX UNIV[…] GENEVE, priority 2015, dated 2020)

Tested on: α1GABAAR-mediated sedation
Test: Dose dependence of sedation in triple (H→R) point-mutated mice
Details: dose response curves
Procedure: Mice (C57BL/6J or 129X1/SvJ) were tested during the light phase of the day-night cycle. […] Motor activity expressed as the total number of photocell interruptions was recorded for 6 h.

SMILES | Dose for maximum sedation compared with dose for maximum analgesia
CN1C(=O)CN=C(c2ccccc2)c2cc(Cl)ccc21 [DZP, diazepam] | maximum sedation is achieved at lower DZP dose as compared to DZP dose needed to achieve maximum analgesia
O=C1CC(=O)N(c2ccccc2)c2cc(Cl)ccc2N1 [NDMC, 8-Chloro-1-phenyl-1H-1,5-benzodiazepine-2,4(3H,5H)-dione] | maximum sedation is achieved at higher NDMC dose as compared to NMDC dose needed to achieve maximum analgesia
